This is an account of results in US20180338980A1, “AROMATIC SULFONAMIDE DERIVATIVES” (BAYER PHARMA AKTIENGESELLSCHAFT, priority 2015, published 2018).

The chains behind the UniProt entries cited, without tags or fusion partners.
UniProt Q99571, whole entry: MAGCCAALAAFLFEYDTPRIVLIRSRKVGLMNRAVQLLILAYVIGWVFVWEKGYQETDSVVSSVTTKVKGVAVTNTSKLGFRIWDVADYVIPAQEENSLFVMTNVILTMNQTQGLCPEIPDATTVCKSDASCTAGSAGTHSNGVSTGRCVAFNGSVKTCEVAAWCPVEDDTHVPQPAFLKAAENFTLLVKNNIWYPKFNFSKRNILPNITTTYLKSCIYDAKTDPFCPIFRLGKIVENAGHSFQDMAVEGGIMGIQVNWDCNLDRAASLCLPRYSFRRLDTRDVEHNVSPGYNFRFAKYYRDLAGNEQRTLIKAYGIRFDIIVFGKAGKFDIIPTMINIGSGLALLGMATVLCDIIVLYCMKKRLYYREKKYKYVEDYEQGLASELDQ

Each structure is given as a SMILES string. Structures were worked out from names or drawings and are uncertain.

The target in this experiment is human P2X4 receptors (Homo sapiens, UniProt Q99571). Briefly: Assay B: human P2X4 receptor cell line, mitochondrial photina luminescence (agonist Bz-ATP at EC50). It counts as cell-based.

As for `COc1cc(OC)cc(Oc2ccc(NC(=O)Cc3ccccc3)cc2S(N)(=O)=O)c1`, the “human P2X4 Assay B avg Efficacy” value (HEK human P2X4 cell line, agonist Bz-ATP at EC50, average) was 71%. Under “read-out: human P2X4 Assay B avg IC50, HEK human P2X4 cell line, agonist Bz-ATP at EC50, average”, the IC50 (commonly the concentration at which inhibition is half-maximal) is 302 nM.
